No constants are given. Whether binding was seen depends on the method and setting. Binding can be weak; no strength is given.
Molecular target: Tubulin from calf brain (calf (bovine))
Experiment: co-sedimentation; pelleting experiment: tubulin (printed 10 M, micro sign lost) without or with PFK (printed 2 M), assembly started with taxol (printed 20 M); 50 mM Hepes, 100 mM potassium chloride, 5 mM magnesium chloride, pH 7.0, 30C; 100 000 g for 20 min; pellets and supernatants on SDS-PAGE; some samples with vinblastine or KAR-2; both purified

binding: binds
B1: Phosphofructokinase [ATP: D-fructose 6-phosphate 1-phospho-transferase, EC 2.7.1.11] from rabbit skeletal muscle (enzyme, UniProt P00511 1-780)
chain: MTHEEHHAARTLGVGKAIAVLTSGGDAQGMNAAVRAVVRVGIFTGARVFFVHEGYQGLVDGGDHIREATWESVSMMLQLGGTVIGSARCKDFREREGRLRAAHNLVKRGITNLCVIGGDGSLTGADTFRSEWSDLLSDLQKAGKITAEEATRSSYLNIVGLVGSIDNDFCGTDMTIGTDSALHRITEIVDAITTTAQSHQRTFVLEVMGRHCGYLALVTSLSCGADWVFIPECPPDDNWEDHLCRRLSETRTRGSRLNIIIVAEGAIDRNGKPITSEGVKDLVVRRLGYDTRVTVLGHVQRGGTPSAFDRILGSRMGVEAVMALLEGTPDTPACVVSLSGNQAVRLPLMECVQVTKDVTKAMDEKRFDEAMKLRGRSFMNNWEVYKLLAHIRPPAPKSGSYTVAVMNVGAPAAGMNAAVRSTVRIGLIQGNRVLVVHDGFEGPAKGQIEEAGWSYVGGWTGQGGSKLGSKRTLPKKSFEQISANITKFNIQGLVIIGGFEAYTGGLELMEGRKQFDELCIPFVVIPATVSNNVPGSDFSVGADTALNTICTTCDRIKQSAAGTKRRVFIIETMGGYCGYLATMAGLAAGADAAYIFEEPFTIRDLQANVEHLVQKMKTTVKRGLVLRNEKCNENYTTDFIFNLYSEEGKGIFDSRKNVLGHMQQGGSPTPFDRNFATKMGAKAMNWMAGKIKESYRNGRIFANTPDSGCVLGMRKRALVFQPVTELQNQTDFEHRIPKEQWWLKLRPILKILAKYEIDLDTSEHAHLEHISRKRSGEATV
